In this data set the test system is mSWI/SNF complexes. The data set is described as follows: mSWI/SNF complex purification with HA-tagged baits and mass spectrometry (peptide counts). The arrangement: species or system human. The following applies: 293_HA-BRD7 bait purification, mass spectrometry; for Total: total peptide count per identified protein; for Unique: unique peptide count per identified protein.

B1: UPF3B (protein, UniProt Q9BZI7 1-483, looked up)
Regulator of nonsense …: MKEEKEHRPKEKRVTLLTPAGATGSGGGTSGDSSKGEDKQDRNKEKKEALSKVVIRRLPPTLTKEQLQEHLQPMPEHDYFEFFSNDTSLYPHMYARAYINFKNQEDIILFRDRFDGYVFLDNKGQEYPAIVEFAPFQKAAKKKTKKRDTKVGTIDDDPEYRKFLESYATDNEKMTSTPETLLEEIEAKNRELIAKKTTPLLSFLKNKQRMREEKREERRRREIERKRQREEERRKWKEEEKRKRKDIEKLKKIDRIPERDKLKDEPKIKVHRFLLQAVNQKNLLKKPEKGDEKELDKREKAKKLDKENLSDERASGQSCTLPKRSDSELKDEKPKRPEDESGRDYREREREYERDQERILRERERLKRQEEERRRQKERYEKEKTFKRKEEEMKKEKDTLRDKGKKAESTESIGSSEKTEKKEEVVKRDRIRNKDRPAMQLYQPGARSRNRLCPPDDSTKSGDSAAERKQESGISHRKEGGEE
In turn, B1 yielded a Total of 1 and a Unique of 1.

B2: VPS8 (protein, UniProt Q8N3P4 1-1428, looked up)
Vacuolar protein …: MENEPDHENVEQSLCAKTSEEELNKSFNLEASLSKFSYIDMDKELEFKNDLIDDKEFDIPQVDTPPTLESILNETDDEDESFILEDPTLLNIDTIDSHSYDTSSVASSDSGDRTNLKRKKKLPDSFSLHGSVMRHSLLKGISAQIVSAADKVDAGLPTAIAVSSLIAVGTSHGLALIFGKDQNQALRLCLGSTSVGGQYGAISALSINNDCSRLLCGFAKGQITMWDLASGKLLRSITDAHPPGTAILHIKFTDDPTLAICNDSGGSVFELTFKRVMGVRTCESRCLFSGSKGEVCCIEPLHSKPELKDHPITQFSLLAMASLTKILVIGLKPSLKVWMTFPYGRMDPSSVPLLAWHFVAVQNYVNPMLAFCRGDVVHFLLVKRDESGAIHVTKQKHLHLYYDLINFTWINSRTVVLLDSVEKLHVIDRQTQEELETVEISEVQLVYNSSHFKSLATGGNVSQALALVGEKACYQSISSYGGQIFYLGTKSVYVMMLRSWRERVDHLLKQDCLTEALALAWSFHEGKAKAVVGLSGDASKRKAIVADRMVEILFHYADRALKKCPDQGKIQVMEQHFQDMVPVIVDYCLLLQRKDLLFSQMYDKLSENSVAKGVFLECLEPYILSDKLVGITPQVMKDLIVHFQDKKLMENVEALIVHMDITSLDIQQVVLMCWENRLYDAMIYVYNRGMNEFISPMEKLFRVIAPPLNAGKTLTDEQVVMGNKLLVYISCCLAGRAYPLGDIPEDLVPLVKNQVFEFLIRLHSAEASPEEEIYPYIRTLLHFDTREFLNVLALTFEDFKNDKQAVEYQQRIVDILLKVMVENSDFTPSQVGCLFTFLARQLAKPDNTLFVNRTLFDQVLEFLCSPDDDSRHSERQQVLLELLQAGGIVQFEESRLIRMAEKAEFYQICEFMYEREHQYDKIIDCYLRDPLREEEVFNYIHNILSIPGHSAEEKQSVWQKAMDHIEELVSLKPCKAAELVATHFSGHIETVIKKLQNQVLLFKFLRSLLDPREGIHVNQELLQISPCITEQFIELLCQFNPTQVIETLQVLECYRLEETIQITQKYQLHEVTAYLLEKKGDIHGAFLIMLERLQSKLQEVTHQGENTKEDPSLKDVEDTMVETIALCQRNSHNLNQQQREALWFPLLEAMMAPQKLSSSAIPHLHSEALKSLTMQVLNSMAAFIALPSILQRILQDPVYGKGKLGEIQGLILGMLDTFNYEQTLLETTTSLLNQDLHWSLCNLRASVTRGLNPKQDYCSICLQQYKRRQEMADEIIVFSCGHLYHSFCLQNKECTVEFEGQTRWTCYKCSSSNKVGKLSENSSEIKKGRITPSQVKMSPSYHQSKGDPTAKKGTSEPVLDPQQIQAFDQLCRLYRGSSRLALLTELSQNRSSESYRPFSGSQSAPAFNSIFQNENFQLQLIPPPVTED
For B2, the Total is 1 and the Unique is 1.

B3: ##MAP7D3 (protein, UniProt Q8IWC1 1-876, looked up)
MAP7 domain-containing …: MMADGAAAGAGGSPSLRELRARMVAAANEIAKERRKQDVVNRVATHSSNIRSTFKPVIDGSMLKNDIKQRLARERREEKRRQQDANKETQLLEKERKTKLQYEKQMEERQRKLKERKEKEEQRRIAAEEKRHQKDEAQKEKFTAILYRTLERRRLADDYQQKRWSWGGSAMANSESKTANKRSASTEKLEQGTSALIRQMPLSSAGLQNSVAKRKTDKERSSSLNRRDSNLHSSTDKEQAERKPRVTGVTNYVMQYVTVPLRKCTSDELRAVMFPMSTMKIPPQTKVEESPLEKVETPPKASVDAPPQVNVEVFCNTSMEASPKAGVGMAPEVSTDSFPVVSVDVSPVVSTYDSEMSMDASPELSIEALPKVDLETVPKVSIVASPEASLEAPPEVSLEALPEVSVEAAPEGSLEAPPKGSAEVAPKESVKGSPKESMEASPEAMVKASPKTSLEASMEASPKAKARDAPKKSEMDKQALIPIAKKRLSSYTECYKWSSSPENACGLPSPISTNRQIQKNCPPSPLPLISKQSPQTSFPYKIMPIQHTLSVQSASSTVKKKKETVSKTTNRCEALSQRHMIYEESGNKSTAGIMNAEAATKILTELRRLAREQREKEEEERQREEMQQRVIKKSKDMAKEAVGGQAEDHLKLKDGQQQNETKKKKGWLDQEDQEAPLQKGDAKIKAQEEADKRKKEHERIMLQNLQERLERKKRIEEIMKRTRKTDVNASKVTETSSHDIYEEAEADNEESDKDSLNEMFPSAILNGTGSPTKFKMPFNNAKKMTHKLVFLEDGTSQVRKEPKTYFNGDLKNFRQKSMKDTSIQEVVSRPSSKRMTSHTTKTRKADETNTTSRSSAQTKSEGFHDILPKSSDTFRQ
For the molecule B3, the Total was 1 and the Unique came to 1.

B4: APOBR (protein, UniProt Q0VD83 1-1097, looked up)
Apolipoprotein B receptor: MDFLRLYLPGLHQALRGALDSLGTFVSYLLGDAVPTVEREAQAAEELGVVAVGKTGKIVEEEAQEDLEGLRGSQNEGAGRLRGPGDDRRHEVGSSAVEQTWGWGDGSSHGSQAERQDSGAGETAKAARCQEPSAHLEARKKSKAGSGACQDRSGQAQERQESHEQEVNREERLRSWEQEEEEEEVRAREPGMARGAESEWTWHGETEGKAGAVGPKAAGDNREMEQGVREADAGETEEPGAEGAGKGEEVVVVEKACESTRAWGTWGPGAEPEDWGILGREEARTTPGREEARAILDGEEARTISGGEEAETASGGEEAETASGGEEAGTASGGEEAGIASGGEAGTASGGEEAGTASGGEEAGTASGGDEAWTTSGKEEADLLGVRQTEYGAVPGERLLEATGKVWVLEEEGDEEREAEVSPFPKQPQVLGTERTEEAAESQTAGREAVGGQEAGESFEGQVDLRGKEAEMRQDLGIRADRARMEELVQAEEAQEERGSSRDPVAELPSDGEAEGTADLEATPEARPEEELTGEESEAAQTSCGLLGVEWGGLTHSVTKGQGPELMGGAQTPTKQPEEREAGEVELMGVLALSKEEQERSLEAGPRHAGSVKPEASEAFPGAWENRTRKDMERGNTQEDAADGEQREEEETAGGQTLAAEAEGDRESELSEVPEAGGEGLTTQDAGCGTEEGEASVSENQELDGSTGADAGPCPSLGEAYARETEDEEAEADRTSRRGWRLQAVAVGLPDREDAQTGSVAAGIMGGDVVPHISAAGAGEALEGVLGQGWDSKEKEEAAAGEHAGGQEFGLEGSAEEEVTGRGSQVEAFESREGGPWGGRVEAEESAGAEDSCGLDPAGSQTARAEGMGAMVEAGGLLEKWTLLEEEAVGWQEREQREDSEGRCGDYHPEGEAPRLLDAEGLMVTGGRRAEAKETEPESLEHVRGQEEQPTHQAPAEAAPESVGEAETAEAMGSARGGAANSWSEAPLPGSLLDVSVPRSRVHLSRSSSQRRSRPSFRRTPAWEQQEEPPAPNPPEEELSAPEQRPLQLEEPLEPSPLRHDGTPVPARRRPLGHGFGLAHPGMMQELQARLGRPKPQ
B4: the Total is given as 1 and the Unique was found to be 1.

B5: SLIT2 (protein, UniProt O94813 31-1529, looked up)
Slit homolog 2 protein: QCSCSGSTVDCHGLALRSVPRNIPRNTERLDLNGNNITRITKTDFAGLRHLRVLQLMENKISTIERGAFQDLKELERLRLNRNHLQLFPELLFLGTAKLYRLDLSENQIQAIPRKAFRGAVDIKNLQLDYNQISCIEDGAFRALRDLEVLTLNNNNITRLSVASFNHMPKLRTFRLHSNNLYCDCHLAWLSDWLRQRPRVGLYTQCMGPSHLRGHNVAEVQKREFVCSGHQSFMAPSCSVLHCPAACTCSNNIVDCRGKGLTEIPTNLPETITEIRLEQNTIKVIPPGAFSPYKKLRRIDLSNNQISELAPDAFQGLRSLNSLVLYGNKITELPKSLFEGLFSLQLLLLNANKINCLRVDAFQDLHNLNLLSLYDNKLQTIAKGTFSPLRAIQTMHLAQNPFICDCHLKWLADYLHTNPIETSGARCTSPRRLANKRIGQIKSKKFRCSAKEQYFIPGTEDYRSKLSGDCFADLACPEKCRCEGTTVDCSNQKLNKIPEHIPQYTAELRLNNNEFTVLEATGIFKKLPQLRKINFSNNKITDIEEGAFEGASGVNEILLTSNRLENVQHKMFKGLESLKTLMLRSNRITCVGNDSFIGLSSVRLLSLYDNQITTVAPGAFDTLHSLSTLNLLANPFNCNCYLAWLGEWLRKKRIVTGNPRCQKPYFLKEIPIQDVAIQDFTCDDGNDDNSCSPLSRCPTECTCLDTVVRCSNKGLKVLPKGIPRDVTELYLDGNQFTLVPKELSNYKHLTLIDLSNNRISTLSNQSFSNMTQLLTLILSYNRLRCIPPRTFDGLKSLRLLSLHGNDISVVPEGAFNDLSALSHLAIGANPLYCDCNMQWLSDWVKSEYKEPGIARCAGPGEMADKLLLTTPSKKFTCQGPVDVNILAKCNPCLSNPCKNDGTCNSDPVDFYRCTCPYGFKGQDCDVPIHACISNPCKHGGTCHLKEGEEDGFWCICADGFEGENCEVNVDDCEDNDCENNSTCVDGINNYTCLCPPEYTGELCEEKLDFCAQDLNPCQHDSKCILTPKGFKCDCTPGYVGEHCDIDFDDCQDNKCKNGAHCTDAVNGYTCICPEGYSGLFCEFSPPMVLPRTSPCDNFDCQNGAQCIVRINEPICQCLPGYQGEKCEKLVSVNFINKESYLQIPSAKVRPQTNITLQIATDEDSGILLYKGDKDHIAVELYRGRVRASYDTGSHPASAIYSVETINDGNFHIVELLALDQSLSLSVDGGNPKIITNLSKQSTLNFDSPLYVGGMPGKSNVASLRQAPGQNGTSFHGCIRNLYINSELQDFQKVPMQTGILPGCEPCHKKVCAHGTCQPSSQAGFTCECQEGWMGPLCDQRTNDPCLGNKCVHGTCLPINAFSYSCKCLEGHGGVLCDEEEDLFNPCQAIKCKHGKCRLSGLGQPYCECSSGYTGDSCDREISCRGERIRDYYQKQQGYAACQTTKKVSRLECRGGCAGGQCCGPLRSKRRKYSFECTDGSSFVDEVEKVVKCGCTRCVS
For the molecule B5, the Total came out at 1 and the Unique is given as 1.

B6: SRSF2 (protein, UniProt Q01130 2-221, looked up)
Serine/arginine-rich splicing …: SYGRPPPDVEGMTSLKVDNLTYRTSPDTLRRVFEKYGRVGDVYIPRDRYTKESRGFAFVRFHDKRDAEDAMDAMDGAVLDGRELRVQMARYGRPPDSHHSRRGPPPRRYGGGGYGRRSRSPRRRRRSRSRSRSRSRSRSRSRYSRSKSRSRTRSRSRSTSKSRSARRSKSKSSSVSRSRSRSRSRSRSRSPPPVSKRESKSRSRSKSPPKSPEEEGAVSS
Turning to B6, the Total was determined as 1 and the Unique is on record as 1.
